Experimental data from the supplement of paper PMC9135407.
“And” between values parts separate entries of the source, which are not always exact repeats. Equal entries are not always repeated. Structures can show the parent of a compound that is named as a salt. ± gives the standard deviation of the averaged measurements. The list shows a part of the results. Baselines shift from plate to plate; read single values as rough.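 Assay uses culture-activated primary human stellate myofibroblasts; lipid droplet recovery indicates inactivation. Measured: proportion of Hoechst-counted cells over a plate-specific Bodipy cutoff, duplicate wells, DMSO and nortriptyline as per-plate negative and positive controls. A hit scores, control-normalized, above the plate's top-tenth-percentile nortriptyline wells or ranks among its three best wells. Final well concentrations not reported.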

Tested on: primary human hepatic stellate cells (donor 1)
Assay: percent Bodipy-positive cells; higher = more lipid droplet accumulation
Details: 48 h
[1] = library stock concentration: 3.33 mM
[2] = library stock concentration: 10 mM
[3] = library stock concentration: 1 mM
[4] = library stock concentration: 80 uM
[5] = library stock concentration: 400 uM
[6] = library stock concentration: 2 mM

Q: What does the source list for `Cc1c(NC(=O)OC[C@@H]2COCCN2)cn2ncnc(Nc3ccc4c(cnn4Cc4cccc(F)c4)c3)c12.Cl`?
A: percent Bodipy-positive cells [1]: 81.6 ± 11%; percent Bodipy-positive cells [2]: 99.55 ± 0.044%

Q: What does the source list for `CN1C(=O)OC(C)(C)C1=O` [Trimethadione]?
A: percent Bodipy-positive cells: 27.1 ± 10%; percent Bodipy-positive cells (library stock concentration: 14 mM): 13.9 ± 3.3%

Q: What does the source list for `CC(=O)CCCCn1c(=O)c2c(ncn2C)n(C)c1=O` [Pentoxifylline]?
A: percent Bodipy-positive cells: 34.9 ± 16%; percent Bodipy-positive cells (library stock concentration: 7.2 mM): 6.26% and 16.4%; percent Bodipy-positive cells [2]: 19.8% and 37.7% and 40.3%

Q: `CN(C/C=C/c1ccccc1)Cc1cccc2ccccc12` [Naftifine hydrochloride] was tested. Which “percent Bodipy-positive cells” value did it give?
A: 16.8 ± 0.75%

Q: What does the source list for `O=c1c(-c2ccc(O)cc2)coc2cc(O)ccc12` [Daidzein]?
A: percent Bodipy-positive cells [3]: 18.4 ± 12%; percent Bodipy-positive cells [1]: 8.76 ± 2%

Q: `CNCCCC12CCC(c3ccccc31)c1ccccc12.Cl` [Maprotiline HCl] was tested. Which “percent Bodipy-positive cells” value [2] did it give?
A: 93.2 ± 2.8%

Q: `CC(C)NC[C@H](O)COc1cccc2ccccc12` [(S)-propranolol hydrochloride] was tested. Which “percent Bodipy-positive cells” value did it give?
A: 34.6 ± 2.6%

Q: Which “percent Bodipy-positive cells” value [2] does the source give for `CC(C)NC[C@H](O)COc1cccc2ccccc12` [(S)-(-)-Propranolol hydrochloride] here?
A: 45.3 ± 11%

Q: How did the “percent Bodipy-positive cells” value [2] turn out when `CC(C)NC[C@H](O)COc1cccc2ccccc12` [(S)-Propranolol hydrochloride] was run?
A: 63 ± 2.1%

Q: For `CC1(C)CC[C@]2(C(=O)O)CC[C@]3(C)C(=CC[C@@H]4[C@@]5(C)CC[C@H](O)C(C)(C)[C@@H]5CC[C@]43C)[C@@H]2C1` [Oleanolic Acid], which “percent Bodipy-positive cells” value [1] is on record?
A: 15.4 ± 5.8%

Q: What about the “percent Bodipy-positive cells” value [2] of the same compound?
A: 18 ± 4.8%

Q: What does the source list for `O=C(O)CCCCC(CCSCc1ccccc1)SCc1ccccc1` (stereo unspecified)?
A: percent Bodipy-positive cells [1]: 4.88 ± 1.8%; percent Bodipy-positive cells [2]: 18.1 ± 5.3%

Q: How did the “percent Bodipy-positive cells” value [2] turn out when `C[C@H]1O[C@@H](n2cc(F)c(=O)[nH]c2=O)[C@H](O)[C@@H]1O` [5-fluoro-5'-deoxyuridine] was run?
A: 33.4 ± 8.4%

Q: `C[C@H]1O[C@@H](n2cc(F)c(=O)[nH]c2=O)[C@H](O)[C@@H]1O` [Doxifluridine] was tested. Which “percent Bodipy-positive cells” value [1] did it give?
A: 11.7 ± 3%

Q: And the “percent Bodipy-positive cells” value (library stock concentration: 8.1 mM)?
A: 5.9 ± 0.37%

Q: What about the “percent Bodipy-positive cells” value [2] of the same compound?
A: 13.76 ± 0.1%

Q: How did the “percent Bodipy-positive cells” value [2] turn out when `CC(=O)N(OCc1ccccc1)[C@H]1c2cc(C#N)ccc2OC(C)(C)[C@H]1O` was run?
A: 7.62 ± 2.9%

Q: What does the source list for `CC(C)(C)c1nc(-c2cccc(NS(=O)(=O)c3c(F)cccc3F)c2F)c(-c2ccnc(N)n2)s1` [Dabrafenib]?
A: percent Bodipy-positive cells [4]: 7.67 ± 2.3%; percent Bodipy-positive cells [5]: 9.14 ± 5.8%; percent Bodipy-positive cells [6]: 9.77 ± 3.4%; percent Bodipy-positive cells [2]: 11.7 ± 1.5%

Q: What does the source list for `CC(C)(C)c1nc(-c2cccc(NS(=O)(=O)c3c(F)cccc3F)c2F)c(-c2ccnc(N)n2)s1`?
A: percent Bodipy-positive cells [1]: 10.3 ± 7.6%; percent Bodipy-positive cells [2]: 11.7 ± 1.8%

Q: How did the “percent Bodipy-positive cells” value [2] turn out when `Clc1ccc(C(c2ccc(Cl)cc2)[n+]2ccn(CC(OCc3ccc(Cl)cc3Cl)c3ccc(Cl)cc3Cl)c2)cc1` (stereo unspecified) [Calmidazolium chloride] was run?
A: 100%

Q: How did the “percent Bodipy-positive cells” value [1] turn out when `Cc1c(C(=O)Nc2ccc(N3CCC(N4CCOCC4)CC3)c(C#N)c2)cnn1-c1ccc(Cl)cc1` was run?
A: 100%

Q: And the “percent Bodipy-positive cells” value [2]?
A: 100%

Q: How did the “percent Bodipy-positive cells” value [2] turn out when `OCC1OC(n2cnc3c(NC4CCCC4)nc(Cl)nc32)C(O)C1O` (stereo unspecified) [2-Chloro-N6-cyclopentyladenosine] was run?
A: 11%

Q: How did the “percent Bodipy-positive cells” value [2] turn out when `N[C@@H](Cc1cc(CP(=O)(O)O)cc(-c2ccccc2Cl)c1)C(=O)O` was run?
A: 6.76 ± 2.2%

Q: For `CCCCC/C=C\C/C=C\CC/C=C\CCCC(=O)OCC` [Pinolenic Acid ethyl ester], which “percent Bodipy-positive cells” value [3] is on record?
A: 9.81 ± 3%

Q: Which “percent Bodipy-positive cells” value [2] does the source give for `Nc1ccc(C(=O)O)cc1` [Potassium p-aminobenzoate] here?
A: 9.56 ± 2.2%

Q: With `O=C(O)C1=CO[C@@H](O[C@@H]2O[C@H](CO)[C@@H](O)[C@H](O)[C@H]2O)[C@@H]2C(CO)=CC[C@H]12` [Geniposidic acid] as the compound, how does the “percent Bodipy-positive cells” value [1] read?
A: 5.81 ± 1.1%

Q: What about the “percent Bodipy-positive cells” value [2] of the same compound?
A: 10.3 ± 1.3%

Q: How did the “percent Bodipy-positive cells” value turn out when `CCN1CCCC(OC(=O)C(c2ccccc2)c2ccccc2)C1` (stereo unspecified) [Piperidolate hydrochloride] was run?
A: 26.1 ± 4%

Q: And the “percent Bodipy-positive cells” value [2]?
A: 58.6 ± 8.7%

Q: With `CC(C)c1ccc2c(c1)CC[C@H]1[C@](C)(CN)CCC[C@]21C` [Lylamine hydrochloride] as the compound, how does the “percent Bodipy-positive cells” value [2] read?
A: 91.29 ± 0.54%

Q: With `CC(=O)NC(CC(=O)O)C(=O)O` (racemic) [Aspartic acid, N-acetyl (R,S)] as the compound, how does the “percent Bodipy-positive cells” value read?
A: 17.2 ± 0.52%

Q: With `COc1c(C)c2c(c(O)c1C/C=C(\C)CCC(=O)O)C(=O)OC2` [Mycophenolic acid] as the compound, how does the “percent Bodipy-positive cells” value read?
A: 19 ± 8.5%

Q: What about the “percent Bodipy-positive cells” value [1] of the same compound?
A: 7.91 ± 2.7%

Q: What about the “percent Bodipy-positive cells” value (library stock concentration: 6.2 mM) of the same compound?
A: 5.09% and 16.6%

Q: And the “percent Bodipy-positive cells” value [2]?
A: 17.4% and 20.4% and 4.96%

Q: And the “percent Bodipy-positive cells” value (library stock concentration: 15.6 mM)?
A: 13.5 ± 3.3%

Q: Which “percent Bodipy-positive cells” value [2] does the source give for `O=C(O)c1ccc(S(=O)(=O)N(Cl)Cl)cc1` [Halazone] here?
A: 13.2 ± 1.6%

Q: With `O=C1OC(O)C(c2cc3ccccc3s2)=C1Br` (stereo unspecified) as the compound, how does the “percent Bodipy-positive cells” value [3] read?
A: 15.6 ± 4.1%

Q: `O=C(Oc1ccccc1C(=O)O)c1ccccc1O` [Salsalate] was tested. Which “percent Bodipy-positive cells” value (library stock concentration: 7.7 mM) did it give?
A: 2.67 ± 0.4%

Q: How did the “percent Bodipy-positive cells” value [1] turn out when `O=C(Oc1ccccc1C(=O)O)c1ccccc1O` [Sasapyrine] was run?
A: 7.83 ± 1.9%

Q: What about the “percent Bodipy-positive cells” value [2] of the same compound?
A: 28.4 ± 8.3%

Q: How did the “percent Bodipy-positive cells” value [2] turn out when `CCCCCNC(=N)N/N=C/c1c[nH]c2ccc(OC)cc12` [Tegaserod] was run?
A: 38.4 ± 4.4%

Q: For `CCCCCNC(=N)N/N=C/c1c[nH]c2ccc(OC)cc12` [Tegaserod maleate], which “percent Bodipy-positive cells” value [2] is on record?
A: 35.6 ± 2.8%

Q: Which “percent Bodipy-positive cells” value [2] does the source give for `CCCCCNC(=N)N/N=C/c1c[nH]c2ccc(OC)cc12` here?
A: 87.5 ± 4.1%

Q: How did the “percent Bodipy-positive cells” value [4] turn out when `CS(=O)(=O)c1ccc(-c2cnc(N)c(C(=O)Nc3ccccc3)n2)cc1` was run?
A: 5.08 ± 0.77%

Q: And the “percent Bodipy-positive cells” value [5]?
A: 6.11 ± 3.1%

Q: And the “percent Bodipy-positive cells” value [6]?
A: 5.73 ± 1.2%

Q: What about the “percent Bodipy-positive cells” value [1] of the same compound?
A: 59.9 ± 14%

Q: And the “percent Bodipy-positive cells” value [2]?
A: 35.24 ± 0.32%

Q: `CCOC(=O)C1=C(N)Oc2ccc(Br)cc2[C@H]1[C@H](C#N)C(=O)OCC` was tested. Which “percent Bodipy-positive cells” value [2] did it give?
A: 100%
